Data as given in PubChem BioAssay AID686943 (Drosophila RNAi Screening Center, 2013).

Aim: 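Knockdowns that increase or decrease active ERK after insulin receptor stimulation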 (primary screen)
Cell system: Drosophila S2R+ haemocyte-like cells expressing YFP-tagged ERK (Rolled)
Reagent: long dsRNA against Drosophila genes
Treatment: insulin stimulation versus unstimulated cells; dose and duration not given
Measured: 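Antibody staining for doubly phosphorylated ERK divided by ERK-YFP signal, as plate z-scores, in insulin-treated and untreated cells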
Scale: replicate 1, z-score of dpERK with insulin and replicate 2, z-score of dpERK with insulin: higher = more active ERK per ERK-YFP after insulin
The screen tested about 23,000 reagents; this is a random part of those with a known target gene and a result. 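Extra replicates exist only for a retested subset of genes; insulin dose and duration not given; both raised and lowered dpERK matter.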 A plus sign joins genes that one reagent is predicted to hit. Further read-outs or replicates are left out here. Not given: the amount of reagent, the time to read-out.

| Target gene | amplicon | replicate 1, z-score of dpERK with insulin | replicate 2, z-score of dpERK with insulin |
| --- | --- | --- | --- |
| sws (swiss cheese) | DRSC18843 | 0.9 | -0.28 |
| CG6034 | DRSC10572 | 0.44 | 0.53 |
| orb2 + CG43783 | DRSC10540 | 0.11 | 0.46 |
| orb2 + CG43783 | DRSC10541 | 0.35 | 0.31 |
| orb2 + CG43783 | DRSC10542 | -0.36 | 0.49 |
| CG34224 | DRSC05269 | -0.23 | 0.12 |
| CG12133 | DRSC06108 | 1.23 | 0.14 |
| Ipk1 (Inositol phosphate kinase 1) | DRSC04235 | -0.05 | -0.32 |
| Ipk1 (Inositol phosphate kinase 1) | DRSC04236 | 0.3 | 0.59 |
| Ipk1 (Inositol phosphate kinase 1) | DRSC04237 | 1.16 | 0.66 |
| CG4752 | DRSC04486 | 3.41 | 1.83 |
| CG15638 | DRSC01875 | -0.34 | -0.15 |
| Cpr49Ag (Cuticular protein 49Ag) | DRSC07203 | 0.95 | 0.13 |
| CG8230 | DRSC05931 | -0.63 | -0.19 |
| CG4586 | DRSC18373 | -0.74 | -0.17 |
| mRpL42 (mitochondrial ribosomal protein L42) | DRSC06235 | -0.38 | -0.95 |
| sing (singles bar) | DRSC19530 | -0.72 | -0.2 |
| CG8852 | DRSC00719 | 0.16 | 0.03 |
| Stlk (Ste20-like kinase) | DRSC22687 | -4.46 | 0.28 |
| CG14692 | DRSC14915 | -0.37 | 0.03 |
| ari-1 (ariadne 1) | DRSC20308 | 1.01 | 0.5 |
| ari-1 (ariadne 1) | DRSC21603 | 2.21 | 0.98 |
| Uvrag (UV-resistance associated gene) | DRSC02932 | 0.34 | -0.3 |
| CG14072 | DRSC02375 | 0.44 | 0.11 |
| Cdk12 (Cyclin-dependent kinase 12) | DRSC11836 | 2.26 | 4.97 |

The list goes on (5 carried over from the part before).
| Target gene | amplicon | replicate 1, z-score of dpERK with insulin | replicate 2, z-score of dpERK with insulin |
| --- | --- | --- | --- |
| ari-1 (ariadne 1) | DRSC20308 | 1.01 | 0.5 |
| ari-1 (ariadne 1) | DRSC21603 | 2.21 | 0.98 |
| Uvrag (UV-resistance associated gene) | DRSC02932 | 0.34 | -0.3 |
| CG14072 | DRSC02375 | 0.44 | 0.11 |
| Cdk12 (Cyclin-dependent kinase 12) | DRSC11836 | 2.26 | 4.97 |
| CG15212 | DRSC10212 | 0.34 | -0.06 |
| mod(mdg4) + pre-mod(mdg4)-Z + pre-mod(mdg4)-T | DRSC13477 | -1.47 | 0.91 |
| mod(mdg4) + pre-mod(mdg4)-Z + pre-mod(mdg4)-T | DRSC17001 | 0.34 | 0.88 |
| CG4467 | DRSC15585 | 0.97 | -0.34 |
| eEF5 (eukaryotic translation elongation factor 5) | DRSC04681 | 1.24 | 1.9 |
| CG1105 | DRSC12528 | 0.23 | -0.12 |
| CG43367 | DRSC08299 | 0.72 | 0.12 |
| CG43367 | DRSC08301 | 0.62 | 0.54 |
| CG43367 | DRSC08309 | 0.3 | 0.51 |
| CG1632 | DRSC17558 | 0.32 | -0.69 |
| CG1632 | DRSC18110 | 0.36 | 0 |
| CG34107 | DRSC14554 | 0.34 | 0.45 |
| CG3119 | DRSC00569 | -0.26 | -0.51 |
| TpnC4 (Troponin C isoform 4) | DRSC04856 | 0.26 | -0.67 |
